Source: patent US9790245B2 (Vanderbilt University, priority 2014, dated 2017)

How the values were obtained:
[1] = 15N SABRE-SHEATH hyperpolarization of neat liquids with Ir catalyst; conditions: for ^15N T1 9.4 T / ^15N effective T1 μT / ^15N ε @ 9.4 T (SABRE-SHEATH signal enhancement): ~90 mM catalyst; for ^15N effective T1 μT: microTesla field of the shield; for ^15N ε @ 9.4 T (SABRE-SHEATH signal enhancement): neat liquid, listed as 1 >90% para-H2, other rows 65-75% para-H2
[2] = 1H SABRE hyperpolarization of neat pyridines at 6 mT, detected at 9.4 T; conditions: SABRE at ~6 mT, ortho-1H, ~90 mM catalyst
[3] = Low-field (ex situ) 1H SABRE hyperpolarization of nicotinamide with Ir-IMes catalyst, detected at 9.4 T; conditions: SABRE at 6 ± 4 mT
[4] = listed as natural abundance (n.a.) Py

With `c1ccncc1` [Py (n.a.), pyridine] the “^15N T1 9.4 T” value [1] was 60.8(0.6) s, the “^15N ε greater in n.a. Py with respect to ^15N-Py” value ([1]; limited access to para-H2) was 88 fold and the “^15N effective T1 μT” value [1] was 5.5(0.5) s. The “^15N effective T1 μT” value ([1]; listed as n.a. Py) was 5.5 ± 0.5 s, the “^15N ε @ 9.4 T (SABRE-SHEATH signal enhancement)” value [1] was roughly −2900 and the “^15N ε @ 9.4 T (SABRE-SHEATH signal enhancement)” value [1, 4] was “up to 2900”. The “P^15N (15N polarization)” value ([1]; neat n.a. Py, SABRE-SHEATH) was “≈ 1%”, the “^1H ε @ 9.4 T (1H SABRE signal enhancement)” value [2] was roughly −4.2 and the “^1H ε @ 9.4 T (1H SABRE signal enhancement)” value [2, 4] was “≈ 4”.

In the case of `c1cc[15n]cc1` [^15N—Py], the “^15N T1 9.4 T” value [1] is reported as 66.8(0.5) s, the “^15N effective T1 μT” value [1] is reported as 10.2 ± 1.1 s and the “^15N ε @ 9.4 T (SABRE-SHEATH signal enhancement)” value [1] is reported as roughly −33. For the same compound, the “^15N ε @ 9.4 T (SABRE-SHEATH signal enhancement)” value ([1]; listed as 15N-Py) was “≈ 33” and the “^1H ε @ 9.4 T (1H SABRE signal enhancement)” value [2] was roughly −0.3.

In the case of `NC(=O)c1cccnc1` [Nicotinamide], the “Integral polarization enhancement, Ha” value ([3]; D2O (100%)) is reported as −33.29, the “Integral polarization enhancement, Hb” value ([3]; D2O (100%)) is reported as −29.52 and the “Integral polarization enhancement, Hc” value ([3]; D2O (100%)) is reported as −23.95. For the same compound, the “Integral polarization enhancement, Hd” value ([3]; D2O (100%)) was −11.04, the “Integral polarization enhancement, Ha” value ([3]; Ethanol-d6 (33%), D2O (67%)) was −56.28 and the “Integral polarization enhancement, Hb” value ([3]; Ethanol-d6 (33%), D2O (67%)) was −42.55. For the same compound, the “Integral polarization enhancement, Hc” value ([3]; Ethanol-d6 (33%), D2O (67%)) was −33.26, the “Integral polarization enhancement, Hd” value ([3]; Ethanol-d6 (33%), D2O (67%)) was 10.00 and the “Integral polarization enhancement, Ha” value ([3]; Ethanol-d6 (50%), D2O (50%)) was −74.06. The “Integral polarization enhancement, Hb” value ([3]; Ethanol-d6 (50%), D2O (50%)) was −54.75, the “Integral polarization enhancement, Hc” value ([3]; Ethanol-d6 (50%), D2O (50%)) was −40.01 and the “Integral polarization enhancement, Hd” value ([3]; Ethanol-d6 (50%), D2O (50%)) was 9.27. For the same compound, the “Integral polarization enhancement, Ha” value ([3]; Ethanol-d6 (100%)) was −88.11, the “Integral polarization enhancement, Hb” value ([3]; Ethanol-d6 (100%)) was −71.16 and the “Integral polarization enhancement, Hc” value ([3]; Ethanol-d6 (100%)) was −64.67. The “Integral polarization enhancement, Hd” value ([3]; Ethanol-d6 (100%)) was 9.05.

In the case of `c1ccncc1` [Py-d5 (99.5% d)], the “^15N T1 9.4 T” value [1] is reported as 74.3(2.9) s, the “^15N effective T1 μT” value [1] is reported as 2.2(0.1) s and the “^15N effective T1 μT” value ([1]; listed as Py-d5) is reported as 2.2 ± 0.1 s. For the same compound, the “^15N ε @ 9.4 T (SABRE-SHEATH signal enhancement)” value [1] was roughly −850 and the “^1H ε @ 9.4 T (1H SABRE signal enhancement)” value [2] was roughly −60.
